Results reported in the supplement of paper PMC10849652.
The other results are listed elsewhere or left out.

Chains of the proteins cited; added tags and fusions are not shown. Lines headed by an entry give the natural chain unless they say otherwise; changes in a name come on top.
UniProt P53618: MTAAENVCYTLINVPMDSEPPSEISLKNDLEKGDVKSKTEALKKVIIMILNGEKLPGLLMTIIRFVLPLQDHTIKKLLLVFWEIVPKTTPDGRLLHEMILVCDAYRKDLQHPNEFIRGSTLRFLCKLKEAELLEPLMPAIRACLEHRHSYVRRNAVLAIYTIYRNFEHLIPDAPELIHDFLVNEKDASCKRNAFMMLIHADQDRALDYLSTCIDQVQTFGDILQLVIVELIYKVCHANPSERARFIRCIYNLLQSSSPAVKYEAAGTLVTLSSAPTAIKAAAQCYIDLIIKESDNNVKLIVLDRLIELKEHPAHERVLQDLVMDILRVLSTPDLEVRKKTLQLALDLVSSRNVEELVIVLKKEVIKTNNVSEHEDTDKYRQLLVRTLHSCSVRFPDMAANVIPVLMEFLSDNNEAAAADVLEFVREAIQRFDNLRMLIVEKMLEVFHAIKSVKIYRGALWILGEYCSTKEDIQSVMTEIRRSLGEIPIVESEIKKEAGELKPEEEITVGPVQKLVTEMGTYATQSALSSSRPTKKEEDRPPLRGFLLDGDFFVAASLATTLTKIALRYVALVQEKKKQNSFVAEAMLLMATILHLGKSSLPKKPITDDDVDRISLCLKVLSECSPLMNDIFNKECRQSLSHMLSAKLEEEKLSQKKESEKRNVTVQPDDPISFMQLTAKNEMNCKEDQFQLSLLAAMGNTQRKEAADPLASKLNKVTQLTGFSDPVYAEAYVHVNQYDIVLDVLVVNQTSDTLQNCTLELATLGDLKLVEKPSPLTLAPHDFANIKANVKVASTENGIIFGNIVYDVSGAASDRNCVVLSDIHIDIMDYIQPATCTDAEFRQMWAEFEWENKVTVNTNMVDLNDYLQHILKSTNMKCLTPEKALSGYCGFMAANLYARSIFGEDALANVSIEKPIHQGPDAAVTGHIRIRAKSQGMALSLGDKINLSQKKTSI
UniProt P67870, whole entry, looked up: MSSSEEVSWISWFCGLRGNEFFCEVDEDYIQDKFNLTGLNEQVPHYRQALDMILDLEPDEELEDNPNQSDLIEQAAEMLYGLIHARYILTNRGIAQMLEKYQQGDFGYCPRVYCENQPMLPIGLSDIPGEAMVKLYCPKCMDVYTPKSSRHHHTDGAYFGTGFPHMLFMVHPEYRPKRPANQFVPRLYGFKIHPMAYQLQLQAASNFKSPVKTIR
UniProt P61201: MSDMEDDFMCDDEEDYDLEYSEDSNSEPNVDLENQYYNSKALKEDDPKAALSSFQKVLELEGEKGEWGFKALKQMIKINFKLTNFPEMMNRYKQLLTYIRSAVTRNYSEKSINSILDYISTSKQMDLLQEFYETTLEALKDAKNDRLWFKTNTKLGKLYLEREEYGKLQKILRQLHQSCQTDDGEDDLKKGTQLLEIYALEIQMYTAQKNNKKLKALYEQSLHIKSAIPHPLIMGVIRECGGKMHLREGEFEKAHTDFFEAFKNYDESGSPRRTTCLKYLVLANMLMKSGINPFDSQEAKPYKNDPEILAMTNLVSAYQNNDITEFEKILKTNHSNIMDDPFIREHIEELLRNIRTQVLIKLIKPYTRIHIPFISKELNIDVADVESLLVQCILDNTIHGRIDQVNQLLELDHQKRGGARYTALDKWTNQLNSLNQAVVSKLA
UniProt P12109: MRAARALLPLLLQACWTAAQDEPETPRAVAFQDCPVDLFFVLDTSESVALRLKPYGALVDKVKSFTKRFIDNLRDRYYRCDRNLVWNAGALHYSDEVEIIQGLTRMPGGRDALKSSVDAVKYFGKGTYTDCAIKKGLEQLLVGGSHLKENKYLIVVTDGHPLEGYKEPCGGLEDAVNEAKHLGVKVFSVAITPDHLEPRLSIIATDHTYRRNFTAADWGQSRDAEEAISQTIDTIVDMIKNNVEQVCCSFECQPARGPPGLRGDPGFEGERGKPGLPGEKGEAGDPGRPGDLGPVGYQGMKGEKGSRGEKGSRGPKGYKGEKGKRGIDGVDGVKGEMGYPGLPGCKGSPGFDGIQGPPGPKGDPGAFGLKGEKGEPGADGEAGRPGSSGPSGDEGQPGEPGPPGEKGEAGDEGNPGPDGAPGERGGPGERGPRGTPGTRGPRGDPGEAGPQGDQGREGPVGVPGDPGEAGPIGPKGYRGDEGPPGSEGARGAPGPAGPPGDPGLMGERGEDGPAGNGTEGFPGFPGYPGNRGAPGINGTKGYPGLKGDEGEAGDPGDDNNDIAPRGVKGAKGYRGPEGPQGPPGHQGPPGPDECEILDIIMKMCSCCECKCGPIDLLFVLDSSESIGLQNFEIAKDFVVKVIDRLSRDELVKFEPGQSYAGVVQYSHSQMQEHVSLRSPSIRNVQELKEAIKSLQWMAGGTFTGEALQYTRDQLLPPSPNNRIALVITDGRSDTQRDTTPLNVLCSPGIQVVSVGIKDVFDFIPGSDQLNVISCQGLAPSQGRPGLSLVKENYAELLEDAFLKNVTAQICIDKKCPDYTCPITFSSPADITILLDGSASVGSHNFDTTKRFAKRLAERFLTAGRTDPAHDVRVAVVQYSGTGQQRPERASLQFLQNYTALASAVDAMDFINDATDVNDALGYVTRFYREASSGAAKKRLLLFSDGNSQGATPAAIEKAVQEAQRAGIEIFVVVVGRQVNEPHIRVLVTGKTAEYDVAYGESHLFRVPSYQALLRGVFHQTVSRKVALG
UniProt P36551: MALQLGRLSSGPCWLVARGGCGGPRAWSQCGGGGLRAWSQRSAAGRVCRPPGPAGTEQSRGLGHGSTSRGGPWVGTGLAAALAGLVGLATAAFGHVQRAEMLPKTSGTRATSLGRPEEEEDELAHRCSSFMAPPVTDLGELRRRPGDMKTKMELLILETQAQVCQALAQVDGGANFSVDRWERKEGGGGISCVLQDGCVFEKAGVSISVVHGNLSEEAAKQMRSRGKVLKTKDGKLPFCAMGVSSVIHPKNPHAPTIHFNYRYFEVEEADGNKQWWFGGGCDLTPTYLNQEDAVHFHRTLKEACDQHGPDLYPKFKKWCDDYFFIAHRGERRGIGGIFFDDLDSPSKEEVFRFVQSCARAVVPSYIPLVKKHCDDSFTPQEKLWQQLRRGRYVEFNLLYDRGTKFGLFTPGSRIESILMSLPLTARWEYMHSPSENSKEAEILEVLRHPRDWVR
UniProt P13073, whole entry, looked up: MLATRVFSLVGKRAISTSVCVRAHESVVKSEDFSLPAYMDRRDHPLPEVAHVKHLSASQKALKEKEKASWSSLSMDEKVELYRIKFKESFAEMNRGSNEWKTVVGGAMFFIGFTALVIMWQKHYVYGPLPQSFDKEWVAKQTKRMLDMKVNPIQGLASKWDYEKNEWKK
UniProt Q9Y6N1: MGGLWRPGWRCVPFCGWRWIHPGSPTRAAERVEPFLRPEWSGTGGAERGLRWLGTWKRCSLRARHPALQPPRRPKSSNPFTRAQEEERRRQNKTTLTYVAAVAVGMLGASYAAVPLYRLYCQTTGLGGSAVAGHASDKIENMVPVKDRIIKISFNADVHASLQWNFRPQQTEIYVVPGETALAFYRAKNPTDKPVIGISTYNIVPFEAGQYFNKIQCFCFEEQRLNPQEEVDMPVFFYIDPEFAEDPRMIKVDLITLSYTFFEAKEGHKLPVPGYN
UniProt P55060: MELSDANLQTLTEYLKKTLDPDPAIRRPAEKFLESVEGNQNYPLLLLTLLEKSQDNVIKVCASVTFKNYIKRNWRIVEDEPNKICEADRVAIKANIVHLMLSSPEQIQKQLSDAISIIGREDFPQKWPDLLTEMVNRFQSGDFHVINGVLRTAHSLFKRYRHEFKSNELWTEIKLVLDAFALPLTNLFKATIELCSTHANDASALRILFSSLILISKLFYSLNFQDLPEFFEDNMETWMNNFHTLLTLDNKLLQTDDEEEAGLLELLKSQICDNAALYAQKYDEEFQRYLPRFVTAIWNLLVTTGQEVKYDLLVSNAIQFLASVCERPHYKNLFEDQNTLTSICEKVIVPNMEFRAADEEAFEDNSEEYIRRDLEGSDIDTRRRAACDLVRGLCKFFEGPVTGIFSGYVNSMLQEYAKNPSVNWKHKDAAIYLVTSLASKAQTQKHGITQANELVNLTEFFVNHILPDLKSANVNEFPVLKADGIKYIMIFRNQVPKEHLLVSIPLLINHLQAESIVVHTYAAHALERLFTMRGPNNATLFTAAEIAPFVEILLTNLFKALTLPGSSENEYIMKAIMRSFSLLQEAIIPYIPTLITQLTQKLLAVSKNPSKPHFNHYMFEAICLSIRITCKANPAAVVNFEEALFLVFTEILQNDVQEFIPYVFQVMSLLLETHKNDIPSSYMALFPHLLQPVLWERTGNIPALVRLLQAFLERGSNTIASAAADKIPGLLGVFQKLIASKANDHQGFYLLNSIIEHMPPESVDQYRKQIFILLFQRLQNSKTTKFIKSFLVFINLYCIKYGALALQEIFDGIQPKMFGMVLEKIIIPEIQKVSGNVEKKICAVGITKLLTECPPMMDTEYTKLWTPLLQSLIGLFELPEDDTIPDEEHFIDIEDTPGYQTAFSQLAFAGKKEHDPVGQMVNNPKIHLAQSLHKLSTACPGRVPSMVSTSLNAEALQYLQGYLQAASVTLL

Key:
Experiment in all cases: log2 fold change, soluble protein after heating vs DMSO (PISA); higher = thermal stabilisation; K562 cells, 10 uM, 30 min; active = over 0.2 and 3.5 SD of the protein, either way, in both replicates (recomputed)
[1] = compound: CN1CCN(CCOc2cc(OC3CCOCC3)c3c(Nc4c(Cl)ccc5c4OCO5)ncnc3c2)CC1 [saracatinib]
Outline: (§1)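 Soluble protein was quantified by TMTpro 16plex LC-MS/MS after channel sums were equalised. It was obtained as the supernatant after 21,000xg for 90 min from pooled aliquots of K562 cells (2×10^6 cells/mL, 10 μM compound, 30 min) heated for 3 min across 48°C-58°C and extracted in PBS with 0.5% NP-40 at 4°C. Thermal stability values are relative to control samples and come from duplicates. They are given as log2 fold changes.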

[2] = compound: CN1CCN(c2nc(C3=C(c4c[nH]c5ccccc45)C(=O)NC3=O)c3ccccc3n2)CC1 [sotrastaurin]
Outline: as §1

[3] = compound: CN1CC[C@H](c2c(O)cc(O)c3c(=O)cc(-c4ccccc4Cl)oc23)[C@H](O)C1 [alvocidib]
Outline: as §1

[4] = compound: CN1CCc2c(c3ccccc3n2Cc2ccc(C(=O)NO)cc2)C1 [Tubastatin A]
Outline: as §1

[5] = compound: CNC(=O)C1=CC=CC=C1NC2=NC(=NC=C2Cl)NC3=C(C=C(C=C3)N4CCOCC4)OC
Outline: as §1

[6] = compound: CNC(=O)c1ccc(Nc2ncc(C(F)(F)F)c(NCc3nccnc3N(C)S(C)(=O)=O)n2)cc1 [defactinib]
Outline: as §1

[7] = compound: CNCc1ccc(-c2[nH]c3cc(F)cc4c3c2CCNC4=O)cc1 [rucaparib]
Outline: as §1

[8] = compound: CNc1nc(-c2ccc3c(N)n[nH]c3c2)cc(N2C[C@@H](C(=O)NC3CCCCC3)CC[C@H]2C)n1
Outline: as §1

[9] = compound: COC(=O)N[C@@H](C)CNc1nccc(-c2cn(C(C)C)nc2-c2cc(Cl)cc(NS(C)(=O)=O)c2F)n1 [encorafenib]
Outline: as §1

[10] = compound: COC(=O)[C@H](CCSC)NC(=O)C1=C(C=C(C=C1)NC[C@H](CS)N)C2=CC=CC=C2
Outline: as §1

[11] = compound: COC1=CC=C(C=C1)CN2C=CC3=C2C=C(C=C3)C(=O)NO
Outline: as §1

[12] = compound: CON(C)C(=O)N1N=C(c2cc(F)ccc2F)S[C@@]1(CCCN)c1ccccc1 [filanesib]
Outline: as §1

[13] = compound: CO[C@H]1C[C@@H]2CC[C@@H](C)[C@@](O)(O2)C(=O)C(=O)N2CCCC[C@H]2C(=O)O[C@H]([C@H](C)C[C@@H]2CC[C@H](n3cnnn3)[C@H](OC)C2)CC(=O)[C@H](C)/C=C(\C)[C@@H](O)[C@@H](OC)C(=O)[C@H](C)C[C@H](C)/C=C/C=C/C=C/1C [zotarolimus]
Outline: as §1

[14] = compound: COc1cc(C(=O)O)ccc1NC(=O)[C@@H]1N[C@@H](CC(C)(C)C)[C@](C#N)(c2ccc(Cl)cc2F)[C@H]1c1cccc(Cl)c1F [idasanutlin]
Outline: as §1

[15] = compound: COc1cc(Nc2ncc3c(n2)-c2ccc(Cl)cc2C(c2c(F)cccc2OC)=NC3)ccc1C(=O)O [alisertib]
Outline: as §1

[16] = compound: COc1cc2nc(-c3cc(F)ccc3O)nc(N[C@@H]3CNC[C@H]3C(C)(C)O)c2cc1OC
Outline: as §1

[17] = compound: COc1cc2ncnc(Nc3ccc(F)c(Cl)c3)c2cc1OCCCN1CCOCC1 [gefitinib]
Outline: as §1

[18] = compound: COc1cccc2cc(-c3nc([C@H]4CC[C@H](C(=O)O)CC4)n4ncnc(N)c34)[nH]c12
Outline: as §1

[19] = compound: CS(=O)(=O)CCNCc1ccc(-c2ccc3ncnc(Nc4ccc(OCc5cccc(F)c5)c(Cl)c4)c3c2)o1 [lapatinib]
Outline: as §1

[20] = compound: CS(=O)(=O)N1CCN(Cc2cc3nc(-c4cccc5[nH]ncc45)nc(N4CCOCC4)c3s2)CC1 [pictilisib]
Outline: as §1

Measured: log2 fold change

COPB1 (UniProt P53618)
inactive: [1] 0.014 | [2] -0.06 | [3] -0.049 | [4] -0.002 | [5] 0.01 | [6] -0.042 | [7] -0.019 | [8] 0.007 | [9] 0.076 | [10] -0.033 | [11] 0.016 | [12] -0.031 | [13] 0.034 | [14] -0.04 | [15] -0.068 | [16] 0.064 | [17] 0.013 | [18] -0.009 | [19] 0.023 | [20] 0.027

CSNK2B (UniProt P67870)
inactive: [1] 0.074 | [2] 0.036 | [4] 0.021 | [5] 0.246 | [6] -0.09 | [7] -0.116 | [8] -0.031 | [9] 0.024 | [10] 0.038 | [11] 0.113 | [12] -0.006 | [13] -0.002 | [14] -0.026 | [15] -0.013 | [16] -0.196 | [17] -0.013 | [18] 0.028 | [19] 0.04 | [20] 0.079

COPS2 (UniProt P61201)
inactive: [1] 0.052 | [2] -0.003 | [3] -0.071 | [4] 0.004 | [5] 0.015 | [6] -0.027 | [7] 0.008 | [8] 0.023 | [9] 0.007 | [10] -0.006 | [11] 0.009 | [12] -0.07 | [13] -0.009 | [14] -0.034 | [15] -0.058 | [16] -0.051 | [17] -0.005 | [18] 0.013 | [19] 0.022 | [20] 0.035

COL6A1 (UniProt P12109)
inactive: [1] 0.069 | [2] 0.242 | [3] 0.035 | [4] 0 | [5] 0.067 | [6] -0.04 | [7] -0.117 | [8] 0.006 | [9] -0.005 | [10] 0.269 | [11] 0.008 | [12] 0.052 | [13] -0.197 | [14] 0.077 | [15] -0.058 | [16] -0.113 | [17] 0.048 | [18] 0.293 | [19] -0.019 | [20] -0.098

CPOX (UniProt P36551)
inactive: [1] 0.003 | [2] 0.058 | [3] 0.031 | [4] -0.02 | [5] 0.037 | [6] 0.029 | [7] -0.061 | [8] 0.017 | [9] 0.011 | [10] 0.01 | [11] 0.057 | [12] -0.075 | [13] -0.018 | [14] 0.021 | [15] -0.054 | [16] -0.006 | [17] 0.033 | [18] 0.007 | [19] -0.03 | [20] 0.067

COX4I1 (UniProt P13073)
inactive: [1] 0.053 | [2] 0.024 | [3] 0.017 | [4] 0.002 | [5] -0.025 | [6] 0.001 | [7] -0.075 | [8] -0.017 | [9] -0.009 | [10] 0.033 | [11] -0.017 | [12] -0.024 | [13] -0.004 | [14] -0.007 | [15] -0.024 | [16] 0.008 | [17] -0.008 | [18] 0.073 | [19] -0.012 | [20] 0.006

COX11 (UniProt Q9Y6N1)
inactive: [1] -0.054 | [2] 0.067 | [3] -0.082 | [4] -0.128 | [5] 0.01 | [6] -0.043 | [7] -0.021 | [8] -0.009 | [9] 0.003 | [10] -0.141 | [11] 0.083 | [12] -0.07 | [13] 0.11 | [14] -0.017 | [15] -0.023 | [16] 0.042 | [17] 0.017 | [18] 0.08 | [19] -0.013 | [20] 0.039

CSE1L (UniProt P55060)
inactive: [1] 0.032 | [2] -0.076 | [4] -0.033 | [5] 0.016 | [6] -0.092 | [7] -0.059 | [8] -0.057 | [9] 0.022 | [10] -0.013 | [11] 0.024 | [12] -0.1 | [13] 0.027 | [14] -0.135 | [15] -0.059 | [16] 0.005 | [17] -0.018 | [18] -0.019 | [19] -0.036 | [20] -0.015

2 neighbouring entries out of the list so far:
CSNK2B (UniProt P67870)
inactive: [1] 0.074 | [2] 0.036 | [4] 0.021 | [5] 0.246 | [6] -0.09 | [7] -0.116 | [8] -0.031 | [9] 0.024 | [10] 0.038 | [11] 0.113 | [12] -0.006 | [13] -0.002 | [14] -0.026 | [15] -0.013 | [16] -0.196 | [17] -0.013 | [18] 0.028 | [19] 0.04 | [20] 0.079

COPS2 (UniProt P61201)
inactive: [1] 0.052 | [2] -0.003 | [3] -0.071 | [4] 0.004 | [5] 0.015 | [6] -0.027 | [7] 0.008 | [8] 0.023 | [9] 0.007 | [10] -0.006 | [11] 0.009 | [12] -0.07 | [13] -0.009 | [14] -0.034 | [15] -0.058 | [16] -0.051 | [17] -0.005 | [18] 0.013 | [19] 0.022 | [20] 0.035
